The subject of the assay is Sexual Function and ADD. The experiment in a line: Case history 4, Sibutramine Patient No. 109. The format is in vivo, human. Particulars: before sibutramine.

Results on one molecule are retold here after patent publication US6696495B2, “Treatment of disorders secondary to organic impairments” (Snowden Pharmaceuticals, LLC, priority 1998, dated 2004).

The structures appear in SMILES notation.

Regarding `COc1cc2c(cc1OC)C(=O)C(CC1CCN(Cc3ccccc3)CC1)C2` (stereo not shown) [donepezil], the “response to other medications” value is on record as “unsuccessful”.
